Test results: patent publication US12133855B2, “Lipid-like nanocomplexes and uses thereof” (Trustees of Tufts College, priority 2018, dated 2024)
Values after ≈ are worked out from the molar mass of the structure shown.

Key:
C. albicans (SC5314) = assay: In vitro antifungal activity (MIC, broth dilution); format: cell-based; conditions: 24 and 48 h incubation (48 h stated for Fungizone and free AmB)
[1] = physiological pH; cited from earlier work

C[C@@H]1[C@H](O)[C@@H](C)/C=C/C=C/C=C/C=C/C=C/C=C/C=C/[C@H](O[C@@H]2O[C@H](C)[C@@H](O)[C@H](N)[C@@H]2O)C[C@@H]2O[C@](O)(C[C@@H](O)C[C@@H](O)[C@H](O)CC[C@@H](O)C[C@@H](O)CC(=O)O[C@H]1C)C[C@H](O)[C@H]2C(=O)O [free AmB, amphotericin B]
MIC (C. albicans (SC5314)): 1.75 µg/mL (≈ 1.89 µM)
water solubility [1]: less than 1 mg/L
